Measurements: article PMC5374406, “The Phosphorylation of PDX-1 by Protein Kinase CK2 Is Crucial for Its Stability” (Pharmaceuticals, 2016)
These are yes or no findings as the source states them, for the method shown. Binding seen in cells or lysates may run through a third protein. Some entries that bind do so weakly or less than the wild type. One block for each substance: values may come before it.

Protein sequences, listed by entry. Tags and fused reporters are not part of them. Lines headed by an entry give the natural chain unless they say otherwise; changes in a name come on top.
UniProt P52946: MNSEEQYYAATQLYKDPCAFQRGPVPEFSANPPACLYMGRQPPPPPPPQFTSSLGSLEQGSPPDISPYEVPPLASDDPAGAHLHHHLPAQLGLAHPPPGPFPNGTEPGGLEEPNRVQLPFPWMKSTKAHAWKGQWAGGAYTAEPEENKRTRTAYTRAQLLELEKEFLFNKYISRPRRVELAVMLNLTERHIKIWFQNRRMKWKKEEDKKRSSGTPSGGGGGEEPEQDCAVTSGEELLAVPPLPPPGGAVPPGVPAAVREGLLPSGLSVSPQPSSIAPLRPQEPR
UniProt O43791: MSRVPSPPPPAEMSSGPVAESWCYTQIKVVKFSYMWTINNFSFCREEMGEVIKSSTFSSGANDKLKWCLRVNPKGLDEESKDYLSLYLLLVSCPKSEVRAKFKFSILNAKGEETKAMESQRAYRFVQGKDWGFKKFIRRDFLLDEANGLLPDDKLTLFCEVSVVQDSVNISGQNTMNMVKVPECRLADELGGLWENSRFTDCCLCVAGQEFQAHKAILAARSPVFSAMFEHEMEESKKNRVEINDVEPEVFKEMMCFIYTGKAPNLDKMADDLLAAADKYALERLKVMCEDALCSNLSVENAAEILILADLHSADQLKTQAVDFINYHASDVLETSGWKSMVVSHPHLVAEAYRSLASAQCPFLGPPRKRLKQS
UniProt Q6ZWS8: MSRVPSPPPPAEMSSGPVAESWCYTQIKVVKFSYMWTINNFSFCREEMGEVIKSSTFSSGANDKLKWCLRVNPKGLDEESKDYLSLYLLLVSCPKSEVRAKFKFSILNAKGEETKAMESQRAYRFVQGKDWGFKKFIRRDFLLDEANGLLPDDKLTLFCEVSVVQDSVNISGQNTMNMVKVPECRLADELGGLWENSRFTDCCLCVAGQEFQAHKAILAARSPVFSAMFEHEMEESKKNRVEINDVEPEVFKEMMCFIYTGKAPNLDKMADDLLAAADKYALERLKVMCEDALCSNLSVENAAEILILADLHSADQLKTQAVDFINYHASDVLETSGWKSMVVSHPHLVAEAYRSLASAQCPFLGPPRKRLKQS

Legend:
[1] = target: PDX-1 (pancreatic duodenal homeobox 1 protein), wild type, expressed from pcDNA3.1-PDX-1 (mouse) (UniProt P52946); experiment: co-IP; MIN6 cells transfected with PDX-1 and FLAG-PCIF1 for 24 h; precleared extract incubated with a rabbit PDX-1 antibody for 2 h, protein A sepharose, washed with PBS; blot with FLAG M2 antibody and PDX-1 antiserum
[2] = target: GST-PDX-1 T231A/S232A (CK2-phosphodeficient mutant) (mouse) (UniProt P52946); experiment: pull-down; 10 ug purified GST-tagged PDX-1 immobilised on GSH-sepharose in PBS-T (PBS pH 7.4, 1% Tween 20), incubated 2 h at 4 °C with 7.5 uL in vitro translated [35S]-methionine labeled PCIF1; SDS-PAGE, Coomassie and autoradiography; only the target purified
[3] = target: GST-PDX-1 wild type (mouse) (UniProt P52946); experiment: as above
[4] = target: PDX-1, endogenous in MIN6 cells (mouse (endogenous in MIN6)) (UniProt P52946); experiment: proximity ligation; Duolink in situ PLA in MIN6 cells with PDX-1 rabbit antiserum and SPOP B-8 mouse antibody; 5 h glucose starvation, then 5 mM or 25 mM glucose for 4 h, with 10 uM CX-4945 or DMSO; dots counted in 50 cells

- binding [1]: binds
Substance: FLAG-tagged PCIF1 (human SPOP) from pFLAG-CMV-2-SPOP (from UniProt O43791 1-374)

- binding [2]: binds
- binding [3]: binds
Substance: PCIF1 (human), in vitro translated and [35S]-methionine labeled, from pET28a-PCIF-1 (from UniProt O43791 1-374)

- binding [4]: binds
Substance: PCIF1, endogenous in MIN6 cells (from UniProt Q6ZWS8 1-374)
